Results from PMC5007831.
These are yes or no findings as the source states them, for the method shown. Binding seen in cells or lysates may run through a third protein. Some binding calls cover weakened binding; strength is not graded here. For some assays here: Sequences can lack the tags named with a protein. Values belong to the binder of their own block, whether it stands above or below them.

Columns and labels:
[1] = molecular target: T1, endogenous FOXM1 (human (endogenous in MCF-7)) (UniProt Q08050); test: co-IP; endogenous proteins of MCF-7 cells, epirubicin (1 μM) for 0, 6 and 24 h (Figure 4 with MG132; Figure 7b vehicle); IP with an RNF168 antibody or a FOXM1 antibody, IgG as control; blot for RNF168, RNF8 and FOXM1
T1 sequence: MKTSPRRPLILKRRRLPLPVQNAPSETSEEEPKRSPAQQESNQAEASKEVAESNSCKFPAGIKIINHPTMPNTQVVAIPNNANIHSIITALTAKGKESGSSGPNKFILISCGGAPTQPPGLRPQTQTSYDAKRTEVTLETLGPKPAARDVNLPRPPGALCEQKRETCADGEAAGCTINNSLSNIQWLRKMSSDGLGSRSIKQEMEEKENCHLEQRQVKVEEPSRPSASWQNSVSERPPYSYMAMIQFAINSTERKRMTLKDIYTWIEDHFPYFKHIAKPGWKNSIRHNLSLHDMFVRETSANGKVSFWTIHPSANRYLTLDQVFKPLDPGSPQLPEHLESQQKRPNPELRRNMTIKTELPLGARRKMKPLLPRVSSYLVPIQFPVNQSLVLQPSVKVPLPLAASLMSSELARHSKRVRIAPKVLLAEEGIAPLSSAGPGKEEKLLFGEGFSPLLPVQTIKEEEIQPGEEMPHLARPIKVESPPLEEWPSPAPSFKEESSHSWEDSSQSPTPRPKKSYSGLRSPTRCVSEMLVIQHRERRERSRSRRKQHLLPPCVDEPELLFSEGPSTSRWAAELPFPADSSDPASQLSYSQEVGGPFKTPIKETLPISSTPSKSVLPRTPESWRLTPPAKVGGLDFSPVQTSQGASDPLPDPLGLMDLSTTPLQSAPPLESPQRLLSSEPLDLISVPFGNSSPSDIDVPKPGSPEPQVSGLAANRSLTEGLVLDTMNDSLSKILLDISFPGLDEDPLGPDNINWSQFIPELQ

HA-RNF8 = molecular target: T2, HA-RNF8 (UniProt O76064); test: co-IP; MCF-7 cells co-transfected with HA-RNF8 and Flag-FOXM1, epirubicin (1 μM) for 0, 6 and 24 h, pretreated with 10 μM MG132; IP products with αHA probed for Flag-FOXM1 and HA-RNF8
T2 sequence: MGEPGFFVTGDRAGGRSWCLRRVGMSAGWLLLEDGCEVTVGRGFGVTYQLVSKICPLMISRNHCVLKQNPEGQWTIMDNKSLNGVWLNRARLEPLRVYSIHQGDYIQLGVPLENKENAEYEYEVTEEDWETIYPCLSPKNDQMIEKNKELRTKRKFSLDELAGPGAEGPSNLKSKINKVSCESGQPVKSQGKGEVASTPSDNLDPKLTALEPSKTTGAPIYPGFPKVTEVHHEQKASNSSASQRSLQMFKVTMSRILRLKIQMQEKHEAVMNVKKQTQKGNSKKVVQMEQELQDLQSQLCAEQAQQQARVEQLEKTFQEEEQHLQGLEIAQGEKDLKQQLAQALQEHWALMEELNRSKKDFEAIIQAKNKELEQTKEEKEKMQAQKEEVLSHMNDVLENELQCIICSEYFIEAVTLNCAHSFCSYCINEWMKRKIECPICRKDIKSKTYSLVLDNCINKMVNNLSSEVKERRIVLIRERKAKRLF

- binding [1]: binds
B1: endogenous RNF8 (protein, UniProt O76064 1-485)
chain: T2 sequence

- binding (HA-RNF8): binds
B2: Flag-FOXM1 (protein, UniProt Q08050 1-763)
chain: T1 sequence
